Results are given in words; binding and its absence hold for the method and conditions named. Binding seen in cells or lysates may run through a third protein. Some binding calls cover weakened binding; strength is not graded here. Where a sequence is shown, tags or fusion partners need not be part of it.
Columns and labels:
Test in all cases: pull-down; GST-tagged BAI proteins pre-loaded on GSH-sepharose 4B beads, incubated with lysates of HEK293T cells overexpressing Flag-tagged ELMO2 proteins; lysis buffer 50 mM HEPES pH 7.4, 150 mM NaCl, 1 mM EGTA, 10% glycerol, 1% Triton; 4 °C, 1 h; anti-Flag western blot; only the target purified
[1] = molecular target: T1, GST-tagged BAI1 1431-1582 (mouse) (UniProt Q3UHD1)
T1 sequence: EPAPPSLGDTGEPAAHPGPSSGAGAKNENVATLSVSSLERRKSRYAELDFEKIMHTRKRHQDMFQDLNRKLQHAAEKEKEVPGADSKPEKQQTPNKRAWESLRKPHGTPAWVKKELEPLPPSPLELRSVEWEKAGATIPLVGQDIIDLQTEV

BAI1-EBD R1489A (mouse) = molecular target: T2, BAI1-EBD R1489A (mouse) (UniProt Q3UHD1)
T2 sequence: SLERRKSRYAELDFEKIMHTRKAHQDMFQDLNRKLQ

[2] = molecular target: T3, BAI1 ELMO-binding domain (aa 1467-1502), pull-down construct (mouse) (UniProt Q3UHD1)
T3 sequence: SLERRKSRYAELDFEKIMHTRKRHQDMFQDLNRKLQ

- binding [1]: binds
- binding (BAI1-EBD R1489A (mouse)): no binding
- binding [2]: binds
B1: Flag-tagged RBD-ARR-ELMO tandem of ELMO2 (aa 1-520) (domain or fragment, UniProt Q96JJ3 1-520)
chain: MPPPSDIVKVAIEWPGANAQLLEIDQKRPLASIIKEVCDGWSLPNPEYYTLRYADGPQLYITEQTRSDIKNGTILQLAISPSRAARQLMERTQSSNMETRLDAMKELAKLSADVTFATEFINMDGIIVLTRLVESGTKLLSHYSEMLAFTLTAFLELMDHGIVSWDMVSITFIKQIAGYVSQPMVDVSILQRSLAILESMVLNSQSLYQKIAEEITVGQLISHLQVSNQEIQTYAIALINALFLKAPEDKRQDMANAFAQKHLRSIILNHVIRGNRPIKTEMAHQLYVLQVLTFNLLEERMMTKMDPNDQAQRDIIFELRRIAFDAESDPSNAPGSGTEKRKAMYTKDYKMLGFTNHINPAMDFTQTPPGMLALDNMLYLAKVHQDTYIRIVLENSSREDKHECPFGRSAIELTKMLCEILQVGELPNEGRNDYHPMFFTHDRAFEELFGICIQLLNKTWKEMRATAEDFNKVMQVVREQITRALPSKPNSLDQFKSKLRSLSYSEILRLRQSERMSQDD
